Experimental findings from article PMC8210600 are described below.

Chains of the proteins cited; added tags and fusions are not shown.
UniProt Q15717: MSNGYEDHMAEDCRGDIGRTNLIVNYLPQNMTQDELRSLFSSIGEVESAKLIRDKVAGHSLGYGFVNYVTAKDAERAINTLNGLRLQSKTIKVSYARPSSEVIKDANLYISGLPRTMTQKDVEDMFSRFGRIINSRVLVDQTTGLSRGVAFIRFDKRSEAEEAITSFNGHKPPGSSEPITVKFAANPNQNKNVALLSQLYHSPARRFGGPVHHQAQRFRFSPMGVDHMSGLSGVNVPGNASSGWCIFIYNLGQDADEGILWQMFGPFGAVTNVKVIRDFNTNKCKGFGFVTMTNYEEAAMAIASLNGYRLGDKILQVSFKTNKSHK
UniProt Q9Y297: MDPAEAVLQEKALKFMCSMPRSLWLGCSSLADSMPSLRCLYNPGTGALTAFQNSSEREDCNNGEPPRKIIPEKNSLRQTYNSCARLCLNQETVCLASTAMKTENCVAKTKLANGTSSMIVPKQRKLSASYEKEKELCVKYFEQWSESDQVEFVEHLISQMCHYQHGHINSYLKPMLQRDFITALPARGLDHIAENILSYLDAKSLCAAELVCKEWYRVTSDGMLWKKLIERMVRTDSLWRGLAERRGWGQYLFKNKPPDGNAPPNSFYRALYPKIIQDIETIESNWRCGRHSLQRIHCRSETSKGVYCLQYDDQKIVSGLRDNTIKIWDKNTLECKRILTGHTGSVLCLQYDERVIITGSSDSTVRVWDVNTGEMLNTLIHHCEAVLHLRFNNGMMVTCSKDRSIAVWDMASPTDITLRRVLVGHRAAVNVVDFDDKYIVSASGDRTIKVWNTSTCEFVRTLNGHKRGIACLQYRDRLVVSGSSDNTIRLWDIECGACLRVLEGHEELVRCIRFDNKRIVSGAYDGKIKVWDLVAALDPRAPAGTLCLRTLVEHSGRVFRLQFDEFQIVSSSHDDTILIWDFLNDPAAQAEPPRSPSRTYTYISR

These are yes or no findings as the source states them, for the method shown. In cells and extracts the contact can be indirect. Some results given as binding are weak or reduced against the parent protein; the word gives no strength.

For the assay, the target named is human antigen R (HuR) (human (endogenous in HCT116)) (UniProt Q15717). As to the kind of experiment: co-IP; endogenous proteins of HCT116 cells transfected with N.C or circRHOBTB3 overexpression plasmid; anti-HuR and anti-βTrCP antibodies, Protein-A/G MagBeads, Western blotting.

Regarding “E3 ubiquitin ligase β-Trcp1 (from UniProt Q9Y297 1-605)”, the binding result is given as “binds”.
